Common to all, as to details: protein level drug-treated versus buffer control, 24 h
In experiment [1] the test system is Primary Human Endothelial Cells (HUVEC). In words: BioMAP 4H system (endothelial cells + IL-4 + histamine), cell-based ELISA. How it is done:
Human umbilical vein endothelial cells (HUVEC) were cultured according to standard methods, and plated into microtiter plates. Peripheral blood mononuclear cells (PBMC) were prepared from buffy coats from normal human donors according to standard methods. Experiments were performed by culturing HUVEC in microtiter plates in the presence of cytokines (IL-1b, 1 ng/ml; TNF-a, 5 ng/ml; and IFN-g, 100 ng/ml, or IL-4, 5 ng/ml and histamine, […]), activators (SAg, 20 ng/ml or LPS, 0.2 ng/ml), and/or PBMC (7.5×10^4 cells/well) for 24 h. Compounds were tested at the indicated concentrations. […]
The levels of readout parameters (proteins) were measured by cell-based ELISA. […] Plates were washed and developed with TMB substrate and the absorbance (OD) was read at 450 nm (subtracting the background absorbance at 650 nm). Other readout parameters include: total protein levels (SRB assay), measuring the viability of peripheral blood mononuclear cells (incorporation of propidium iodide); and microscopic visualization. SRB was performed by staining cells with 0.1% sulforhodamine B after fixation with 10% TCA, and reading wells at 560 nm. PBMC viability was assessed by adding propidium iodide (10 mg/ml) to PBMC that had been cultured for 24 hours in the presence of activators and measuring the percentage of cells that incorporated dye by flow cytometry after 10 minutes. […]

Experiment [2] has as its system Peripheral Blood Mononuclear Cells + Endothelial Cells. In words: BioMAP LPS system (PBMC + endothelial cells, TLR4), cell-based ELISA. On the set-up: species or system human. How it is done:
Human umbilical vein endothelial cells (HUVEC) were cultured according to standard methods, and plated into microtiter plates. Peripheral blood mononuclear cells (PBMC) were prepared from buffy coats from normal human donors according to standard methods. Experiments were performed by culturing HUVEC in microtiter plates in the presence of cytokines (IL-1b, 1 ng/ml; TNF-a, 5 ng/ml; and IFN-g, 100 ng/ml, or IL-4, 5 ng/ml and histamine, […]), activators (SAg, 20 ng/ml or LPS, 0.2 ng/ml), and/or PBMC (7.5×10^4 cells/well) for 24 h. Compounds were tested at the indicated concentrations. Compounds were prepared in the solvent as directed, added 1 hr before stimulation of the cells, and were present during the whole 24 hr stimulation period. The levels of readout parameters (proteins) were measured by cell-based ELISA. Briefly, microtiter plates are treated, blocked, and then incubated with primary antibodies or isotype control antibodies (0.01-0.5 mg/ml) for 1 hr. After washing, plates were incubated with a peroxidase-conjugated anti-mouse IgG secondary antibody or a biotin-conjugated anti-mouse IgG antibody for 1 hr followed by streptavidin-HRP for 30 min. Plates were washed and developed with TMB substrate and the absorbance (OD) was read at 450 nm (subtracting the background absorbance at 650 nm). Other readout parameters include: total protein levels (SRB assay), measuring the viability of peripheral blood mononuclear cells (incorporation of propidium iodide); and microscopic visualization. SRB was performed by staining cells with 0.1% sulforhodamine B after fixation with 10% TCA, and reading wells at 560 nm. PBMC viability was assessed by adding propidium iodide (10 mg/ml) to PBMC that had been cultured for 24 hours in the presence of activators and measuring the percentage of cells that incorporated dye by flow cytometry after 10 minutes. For data analysis, mean OD values (or other measurements) for each parameter were calculated from triplicate samples per experiment. […] 99% prediction envelopes (grey shading in Figures) were calculated for historical controls.

For experiment [3] the test system is unchanged. In words: BioMAP SAg system (PBMC + endothelial cells, TCR), cell-based ELISA. On the set-up: species or system human. Here is the method:
Human umbilical vein endothelial cells (HUVEC) were cultured according to standard methods, and plated into microtiter plates. Peripheral blood mononuclear cells (PBMC) were prepared from buffy coats from normal human donors according to standard methods. Experiments were performed by culturing HUVEC in microtiter plates in the presence of cytokines (IL-1b, 1 ng/ml; TNF-a, 5 ng/ml; and IFN-g, 100 ng/ml, or IL-4, 5 ng/ml and histamine, […]), activators (SAg, 20 ng/ml or LPS, 0.2 ng/ml), and/or PBMC (7.5×10^4 cells/well) for 24 h. Compounds were tested at the indicated concentrations. Compounds were prepared in the solvent as directed, added 1 hr before stimulation of the cells, and were present during the whole 24 hr stimulation period.
The levels of readout parameters (proteins) were measured by cell-based ELISA. Briefly, microtiter plates are treated, blocked, and then incubated with primary antibodies or isotype control antibodies (0.01-0.5 mg/ml) for 1 hr. After washing, plates were incubated with a peroxidase-conjugated anti-mouse IgG secondary antibody or a biotin-conjugated anti-mouse IgG antibody for 1 hr followed by streptavidin-HRP for 30 min. Plates were washed and developed with TMB substrate and the absorbance (OD) was read at 450 nm (subtracting the background absorbance at 650 nm). Other readout parameters include: total protein levels (SRB assay), measuring the viability of peripheral blood mononuclear cells (incorporation of propidium iodide); and microscopic visualization. SRB was performed by staining cells with 0.1% sulforhodamine B after fixation with 10% TCA, and reading wells at 560 nm. PBMC viability was assessed by adding propidium iodide (10 mg/ml) to PBMC that had been cultured for 24 hours in the presence of activators and measuring the percentage of cells that incorporated dye by flow cytometry after 10 minutes.
For data analysis, mean OD values (or other measurements) for each parameter were calculated from triplicate samples per experiment. […] 99% prediction envelopes (grey shading in Figures) were calculated for historical controls.
(In general: ELISA stands for enzyme-linked immunosorbent assay.)

We go through one compound from patent US9734282B2, “Biological dataset profiling of cardiovascular disease and cardiovascular inflammation” (DISCOVERX CORPORATION, priority 2005, dated 2017).

Each structure is given as a SMILES string.

As to `CC(C)c1c(C(=O)Nc2ccccc2)c(-c2ccccc2)c(-c2ccc(F)cc2)n1CC[C@@H](O)C[C@@H](O)CC(=O)O` [atorvastatin], in experiment [1], the P-selectin level entry was “increases”. In addition, in experiment [2], the IL-1alpha level result was “significant decreases”, the M-CSF level result is “increases” and the tissue factor level result is “increases”. In experiment [3], the CD69 level result is on record as “significant decreases”, the E-selectin level entry was “increases” and the IL-8 level entry is “increases”.
